Source: the supplement of paper PMC12823440, “Inhibitors supercharge kinase turnover through native proteolytic circuits” (Nature, 2025)
Counter-ions that a name gives are not always drawn. This is one part of the list. The calls rarely recur for the same compound in another form.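 Kinases, fused to nanoluciferase, were expressed in K562 cells; luminescence was measured every 4 h from 2 to 18 h as percent of control (DMSO = 100%, positive control = 0%). A time point is decreased if signal falls significantly (2 sigma). Hits were called by the authors by a rule that is not shown; the count of time points alone does not decide it.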

Amino acid sequences for entries named in this document (tags omitted). A change or cut given only in a name is not applied to a line headed by its entry.
UniProt Q15208: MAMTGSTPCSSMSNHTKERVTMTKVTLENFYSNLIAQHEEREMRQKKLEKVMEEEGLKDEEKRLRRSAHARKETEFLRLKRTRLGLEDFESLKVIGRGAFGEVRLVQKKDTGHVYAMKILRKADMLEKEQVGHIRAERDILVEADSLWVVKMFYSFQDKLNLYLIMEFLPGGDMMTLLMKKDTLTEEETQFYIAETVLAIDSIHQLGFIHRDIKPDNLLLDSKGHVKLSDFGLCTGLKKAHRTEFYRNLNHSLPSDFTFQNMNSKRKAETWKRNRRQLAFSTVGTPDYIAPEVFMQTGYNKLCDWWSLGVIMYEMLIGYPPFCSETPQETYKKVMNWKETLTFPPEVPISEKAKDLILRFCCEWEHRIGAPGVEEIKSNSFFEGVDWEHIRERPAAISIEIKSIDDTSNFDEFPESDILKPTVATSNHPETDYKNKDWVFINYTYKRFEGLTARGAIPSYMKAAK
UniProt P42680: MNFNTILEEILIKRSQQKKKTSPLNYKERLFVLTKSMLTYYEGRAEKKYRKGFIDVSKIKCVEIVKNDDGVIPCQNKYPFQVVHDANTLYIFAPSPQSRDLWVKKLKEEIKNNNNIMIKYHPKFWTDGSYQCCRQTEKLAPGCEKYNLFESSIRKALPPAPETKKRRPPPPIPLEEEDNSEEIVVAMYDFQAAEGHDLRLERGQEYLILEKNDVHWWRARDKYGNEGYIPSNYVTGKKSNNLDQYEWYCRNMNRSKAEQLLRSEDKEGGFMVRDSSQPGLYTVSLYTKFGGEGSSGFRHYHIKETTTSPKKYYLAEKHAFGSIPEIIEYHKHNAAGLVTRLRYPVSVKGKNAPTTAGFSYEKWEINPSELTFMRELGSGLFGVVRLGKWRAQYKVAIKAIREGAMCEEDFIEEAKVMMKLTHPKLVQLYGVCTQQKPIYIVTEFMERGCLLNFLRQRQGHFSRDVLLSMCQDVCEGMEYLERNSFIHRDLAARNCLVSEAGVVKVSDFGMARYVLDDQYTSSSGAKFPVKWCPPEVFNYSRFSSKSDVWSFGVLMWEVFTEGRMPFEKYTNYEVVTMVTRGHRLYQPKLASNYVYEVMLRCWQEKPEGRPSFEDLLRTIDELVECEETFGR
UniProt P29597: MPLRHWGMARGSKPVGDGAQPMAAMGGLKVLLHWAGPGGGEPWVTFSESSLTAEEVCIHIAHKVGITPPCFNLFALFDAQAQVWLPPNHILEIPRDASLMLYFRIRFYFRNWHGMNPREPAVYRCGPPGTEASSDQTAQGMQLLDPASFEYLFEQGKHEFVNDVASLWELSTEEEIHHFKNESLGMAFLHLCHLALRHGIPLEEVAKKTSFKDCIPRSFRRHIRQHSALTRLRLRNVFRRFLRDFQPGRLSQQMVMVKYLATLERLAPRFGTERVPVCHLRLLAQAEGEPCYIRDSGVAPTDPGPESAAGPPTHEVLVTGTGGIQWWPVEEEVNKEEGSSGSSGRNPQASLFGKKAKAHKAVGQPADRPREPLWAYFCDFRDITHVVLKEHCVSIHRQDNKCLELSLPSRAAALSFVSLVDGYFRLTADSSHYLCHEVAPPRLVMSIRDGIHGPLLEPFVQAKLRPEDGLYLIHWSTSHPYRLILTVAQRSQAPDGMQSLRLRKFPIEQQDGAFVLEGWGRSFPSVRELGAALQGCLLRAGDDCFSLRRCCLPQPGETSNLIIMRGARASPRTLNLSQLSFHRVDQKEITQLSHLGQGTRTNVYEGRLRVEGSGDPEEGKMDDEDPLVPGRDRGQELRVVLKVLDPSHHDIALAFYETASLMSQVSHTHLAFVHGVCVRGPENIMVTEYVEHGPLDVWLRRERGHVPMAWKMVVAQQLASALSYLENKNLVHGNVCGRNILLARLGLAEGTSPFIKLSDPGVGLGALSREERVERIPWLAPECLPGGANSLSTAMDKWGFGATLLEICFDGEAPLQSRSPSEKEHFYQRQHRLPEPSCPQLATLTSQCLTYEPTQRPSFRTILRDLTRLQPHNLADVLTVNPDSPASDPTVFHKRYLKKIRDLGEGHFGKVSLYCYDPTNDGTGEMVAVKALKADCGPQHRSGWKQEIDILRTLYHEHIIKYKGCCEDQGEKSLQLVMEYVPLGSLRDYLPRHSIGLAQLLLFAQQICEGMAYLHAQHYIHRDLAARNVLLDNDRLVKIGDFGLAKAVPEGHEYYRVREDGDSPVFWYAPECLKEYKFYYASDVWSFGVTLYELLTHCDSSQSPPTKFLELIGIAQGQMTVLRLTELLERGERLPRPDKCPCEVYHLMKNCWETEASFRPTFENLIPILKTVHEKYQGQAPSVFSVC
UniProt Q6PHR2: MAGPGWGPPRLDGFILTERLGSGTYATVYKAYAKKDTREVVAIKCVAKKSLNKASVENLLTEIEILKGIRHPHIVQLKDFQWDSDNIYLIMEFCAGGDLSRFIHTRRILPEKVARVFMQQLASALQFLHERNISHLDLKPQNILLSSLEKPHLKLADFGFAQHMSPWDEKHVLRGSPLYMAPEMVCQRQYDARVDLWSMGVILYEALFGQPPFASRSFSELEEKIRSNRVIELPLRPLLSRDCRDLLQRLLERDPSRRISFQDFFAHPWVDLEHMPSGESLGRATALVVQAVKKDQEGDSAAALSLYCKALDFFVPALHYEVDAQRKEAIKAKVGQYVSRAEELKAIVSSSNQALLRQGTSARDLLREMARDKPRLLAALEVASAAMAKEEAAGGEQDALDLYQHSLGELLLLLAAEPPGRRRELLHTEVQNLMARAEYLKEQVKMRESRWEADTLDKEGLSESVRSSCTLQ
UniProt P07947, whole entry, looked up: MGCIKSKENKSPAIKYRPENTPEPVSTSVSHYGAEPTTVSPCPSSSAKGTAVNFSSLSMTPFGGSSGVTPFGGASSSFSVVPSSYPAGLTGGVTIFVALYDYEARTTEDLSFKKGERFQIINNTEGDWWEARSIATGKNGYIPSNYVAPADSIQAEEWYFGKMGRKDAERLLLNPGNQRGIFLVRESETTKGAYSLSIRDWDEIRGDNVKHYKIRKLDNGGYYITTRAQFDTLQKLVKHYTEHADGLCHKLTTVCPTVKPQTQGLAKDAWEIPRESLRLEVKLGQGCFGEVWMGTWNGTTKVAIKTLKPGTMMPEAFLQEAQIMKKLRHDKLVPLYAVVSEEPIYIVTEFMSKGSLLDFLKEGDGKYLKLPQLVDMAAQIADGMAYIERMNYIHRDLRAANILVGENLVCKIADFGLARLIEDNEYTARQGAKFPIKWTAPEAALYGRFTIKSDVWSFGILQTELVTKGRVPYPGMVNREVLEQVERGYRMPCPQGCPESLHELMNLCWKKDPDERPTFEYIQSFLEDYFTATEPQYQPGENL
UniProt P43403: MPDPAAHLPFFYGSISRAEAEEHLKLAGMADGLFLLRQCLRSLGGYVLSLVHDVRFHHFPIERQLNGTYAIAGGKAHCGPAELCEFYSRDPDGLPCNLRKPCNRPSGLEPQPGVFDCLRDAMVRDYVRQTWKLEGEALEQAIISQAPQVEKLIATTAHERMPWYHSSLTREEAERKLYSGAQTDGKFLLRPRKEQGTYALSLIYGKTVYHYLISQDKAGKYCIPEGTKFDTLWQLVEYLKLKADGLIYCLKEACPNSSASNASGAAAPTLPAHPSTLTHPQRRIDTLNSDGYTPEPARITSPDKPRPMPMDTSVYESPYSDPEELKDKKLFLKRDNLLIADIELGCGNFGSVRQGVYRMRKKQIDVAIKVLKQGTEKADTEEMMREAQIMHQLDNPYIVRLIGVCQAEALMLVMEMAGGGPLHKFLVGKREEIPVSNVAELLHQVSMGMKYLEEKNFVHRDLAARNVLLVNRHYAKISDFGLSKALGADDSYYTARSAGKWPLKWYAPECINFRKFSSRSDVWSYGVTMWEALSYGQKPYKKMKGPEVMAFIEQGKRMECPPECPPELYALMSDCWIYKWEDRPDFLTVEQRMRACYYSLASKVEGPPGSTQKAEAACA
UniProt P11802: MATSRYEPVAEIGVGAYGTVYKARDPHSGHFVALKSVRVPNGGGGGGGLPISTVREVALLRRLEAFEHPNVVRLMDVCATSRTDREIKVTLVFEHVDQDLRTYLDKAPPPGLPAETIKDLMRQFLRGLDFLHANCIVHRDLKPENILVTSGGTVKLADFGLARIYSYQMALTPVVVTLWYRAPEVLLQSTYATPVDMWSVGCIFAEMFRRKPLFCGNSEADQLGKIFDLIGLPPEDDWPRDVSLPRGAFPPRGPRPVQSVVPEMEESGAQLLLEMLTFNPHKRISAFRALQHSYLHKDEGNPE
UniProt P50613: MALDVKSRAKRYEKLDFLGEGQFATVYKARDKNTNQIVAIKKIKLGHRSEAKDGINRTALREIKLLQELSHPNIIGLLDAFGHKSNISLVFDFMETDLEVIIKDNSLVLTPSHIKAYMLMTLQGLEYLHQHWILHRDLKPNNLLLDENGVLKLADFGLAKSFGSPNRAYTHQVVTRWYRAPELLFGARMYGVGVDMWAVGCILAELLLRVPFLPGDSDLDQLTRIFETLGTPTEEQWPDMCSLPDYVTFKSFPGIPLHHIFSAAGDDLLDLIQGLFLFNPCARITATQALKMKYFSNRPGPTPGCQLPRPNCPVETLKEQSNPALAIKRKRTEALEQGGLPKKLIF
UniProt P50750, whole entry: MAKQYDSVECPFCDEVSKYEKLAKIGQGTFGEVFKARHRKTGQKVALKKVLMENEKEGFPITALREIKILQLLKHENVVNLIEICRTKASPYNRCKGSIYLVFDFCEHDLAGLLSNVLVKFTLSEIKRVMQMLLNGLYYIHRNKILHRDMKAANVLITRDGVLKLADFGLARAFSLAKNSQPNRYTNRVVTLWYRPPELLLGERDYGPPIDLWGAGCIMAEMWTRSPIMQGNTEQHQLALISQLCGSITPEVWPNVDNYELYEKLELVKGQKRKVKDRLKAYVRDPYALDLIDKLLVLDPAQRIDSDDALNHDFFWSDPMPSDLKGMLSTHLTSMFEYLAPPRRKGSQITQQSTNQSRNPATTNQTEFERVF

What was measured:
Details in all cases: K562, 2-18 h
[1] = target: STK38 (UniProt Q15208); test: kinase-Nluc reporter destabilization hit call (1 = scored as downregulated) (binary); higher = compound decreases kinase abundance
[2] = target: SYK (UniProt P43405); test: as above
[3] = target: TEC (UniProt P42680); test: as above
[4] = target: TYK2 (UniProt P29597); test: as above
[5] = target: ULK3 (UniProt Q6PHR2); test: as above
[6] = target: YES1 (UniProt P07947); test: as above
[7] = target: ZAK (UniProt Q9NYL2); test: as above
[8] = target: ZAP70 (UniProt P43403); test: as above
[9] = target: CDK4 (UniProt P11802); test: number of time points (of 4; 2 h point missing) at which kinase-Nluc abundance scored as decreased, DMSO-normalised (count); higher = more persistent destabilization
[10] = target: CDK7 (UniProt P50613); test: as above
[11] = target: CDK9 (UniProt P50750); test: as above

| Structure (SMILES) | kinase-Nluc reporter destabilization hit call ([1]; 10 µM) | kinase-Nluc reporter destabilization hit call ([2]; 10 µM) | kinase-Nluc reporter destabilization hit call ([3]; 10 µM) | kinase-Nluc reporter destabilization hit call ([4]; 10 µM) | kinase-Nluc reporter destabilization hit call ([5]; 10 µM) | kinase-Nluc reporter destabilization hit call ([6]; 10 µM) | kinase-Nluc reporter destabilization hit call ([7]; 10 µM) | kinase-Nluc reporter destabilization hit call ([8]; 10 µM) | number of time points ([9]; 10 µM) | number of time points ([10]; 10 µM) | number of time points ([11]; 10 µM) | kinase-Nluc reporter destabilization hit call ([1]; 2.5 µM) | kinase-Nluc reporter destabilization hit call ([2]; 2.5 µM) | kinase-Nluc reporter destabilization hit call ([3]; 2.5 µM) | kinase-Nluc reporter destabilization hit call ([4]; 2.5 µM) | kinase-Nluc reporter destabilization hit call ([5]; 2.5 µM) | kinase-Nluc reporter destabilization hit call ([6]; 2.5 µM) | kinase-Nluc reporter destabilization hit call ([7]; 2.5 µM) | kinase-Nluc reporter destabilization hit call ([8]; 2.5 µM) | number of time points ([9]; 2.5 µM) | number of time points ([10]; 2.5 µM) | number of time points ([11]; 2.5 µM) |
| --- | --- | --- | --- | --- | --- | --- | --- | --- | --- | --- | --- | --- | --- | --- | --- | --- | --- | --- | --- | --- | --- | --- |
| CN(C)C(=N)NC(=N)N [Metformin] | inactive: 0 | inactive: 0 | inactive: 0 | inactive: 0 | inactive: 0 | inactive: 0 | inactive: 0 | inactive: 0 | 0 | 0 | 0 | – | – | – | – | – | – | – | – | – | – | – |
| c1cc(-c2cnn3cc(-c4ccc(OCCN5CCCCC5)cc4)cnc23)ccn1 [Dorsomorphin] | – | – | – | – | – | – | – | – | – | – | – | inactive: 0 | inactive: 0 | inactive: 0 | inactive: 0 | inactive: 0 | inactive: 0 | inactive: 0 | inactive: 0 | 0 | 0 | 0 |
| C=CC(=O)Nc1cc(Nc2nccc(-c3cn(C4CC4)c4ccccc34)n2)c(OC)cc1N(C)CCN(C)C [Almonertinib (hydrochloride)] | – | – | – | – | – | – | – | – | – | – | – | inactive: 0 | inactive: 0 | inactive: 0 | inactive: 0 | inactive: 0 | inactive: 0 | inactive: 0 | inactive: 0 | 0 | 0 | 0 |
| CCS(=O)(=O)N1CC(CC#N)(n2cc(-c3ncnc4[nH]ccc34)cn2)C1 [Baricitinib] | inactive: 0 | inactive: 0 | inactive: 0 | inactive: 0 | inactive: 0 | inactive: 0 | inactive: 0 | inactive: 0 | 0 | 0 | 0 | – | – | – | – | – | – | – | – | – | – | – |
| Oc1cccc(-c2nc(N3CCOCC3)c3oc4ncccc4c3n2)c1 [PI-103 (Hydrochloride)] | – | – | – | – | – | – | – | – | – | – | – | inactive: 0 | inactive: 0 | inactive: 0 | inactive: 0 | inactive: 0 | inactive: 0 | inactive: 0 | inactive: 0 | 0 | 0 | 0 |
| O=C(Nc1cnn2ccc(N3CCC[C@@H]3c3cc(F)ccc3F)nc12)N1CC[C@H](O)C1 [Larotrectinib] | inactive: 0 | inactive: 0 | inactive: 0 | inactive: 0 | inactive: 0 | inactive: 0 | inactive: 0 | inactive: 0 | 0 | 0 | 0 | – | – | – | – | – | – | – | – | – | – | – |
| Cc1cccc(-c2[nH]c(CNc3ccccc3F)nc2-c2ccc3ncnn3c2)n1 [Vactosertib] | – | – | – | – | – | – | – | – | – | – | – | inactive: 0 | inactive: 0 | inactive: 0 | inactive: 0 | inactive: 0 | inactive: 0 | inactive: 0 | inactive: 0 | 0 | 0 | 0 |
| Clc1ccc(C2(c3ccc(-c4cn[nH]c4)cc3)CCNCC2)cc1 [AT7867 (dihydrochloride)] | – | – | – | – | – | – | – | – | – | – | – | inactive: 0 | inactive: 0 | inactive: 0 | inactive: 0 | inactive: 0 | inactive: 0 | inactive: 0 | inactive: 0 | 0 | 0 | 0 |
| CC(C)Nc1cc(-c2c[nH]c(C(=O)N[C@H](CO)c3cccc(Cl)c3)c2)c(Cl)cn1 [Ulixertinib] | inactive: 0 | inactive: 0 | inactive: 0 | inactive: 0 | inactive: 0 | inactive: 0 | inactive: 0 | inactive: 0 | 0 | 0 | 0 | – | – | – | – | – | – | – | – | – | – | – |
| COCCOc1cc(F)c2c(Nc3ccc(NC(=O)Cn4cc(C(C)C)nn4)cc3)ncnc2c1 | inactive: 0 | inactive: 0 | inactive: 0 | inactive: 0 | inactive: 0 | inactive: 0 | inactive: 0 | inactive: 0 | 0 | 0 | 0 | – | – | – | – | – | – | – | – | – | – | – |
| CC(=O)c1c(C)c2cnc(Nc3ccc(N4CCNCC4)cn3)nc2n(C2CCCC2)c1=O [Palbociclib (isethionate)] | inactive: 0 | inactive: 0 | inactive: 0 | inactive: 0 | inactive: 0 | inactive: 0 | inactive: 0 | inactive: 0 | 0 | 0 | 0 | – | – | – | – | – | – | – | – | – | – | – |
| c1cc(-c2cnn3cc(-c4ccc(OCCN5CCCCC5)cc4)cnc23)ccn1 [Dorsomorphin (dihydrochloride)] | – | – | – | – | – | – | – | – | – | – | – | inactive: 0 | inactive: 0 | inactive: 0 | inactive: 0 | inactive: 0 | inactive: 0 | inactive: 0 | inactive: 0 | 0 | 1 | 0 |
| O=C(O)c1ccc2c(c1)nc(Nc1cccc(Cl)c1)c1ccncc12 [Silmitasertib] | inactive: 0 | inactive: 0 | inactive: 0 | active: 1 | inactive: 0 | inactive: 0 | inactive: 0 | inactive: 0 | 0 | 0 | 4 | – | – | – | – | – | – | – | – | – | – | – |
| CN1CCCN(C(=O)c2cccc(-c3ccc(/C=C4/C(=O)Nc5ccc(Cl)cc54)o3)c2)CC1 [CX-6258 (hydrochloride)] | – | – | – | – | – | – | – | – | – | – | – | inactive: 0 | inactive: 0 | inactive: 0 | inactive: 0 | inactive: 0 | inactive: 0 | inactive: 0 | inactive: 0 | 0 | 0 | 0 |
| COc1ncc(F)cc1CNc1ccc(Cc2c[nH]c3ncc(C)cc23)c(F)n1 | inactive: 0 | inactive: 0 | inactive: 0 | inactive: 0 | inactive: 0 | inactive: 0 | inactive: 0 | inactive: 0 | 0 | 0 | 0 | – | – | – | – | – | – | – | – | – | – | – |
| COc1cc2nccc(Nc3cc(OC)c(OC)c(OC)c3)c2cc1OC [GAK inhibitor 49] | inactive: 0 | inactive: 0 | inactive: 0 | inactive: 0 | inactive: 0 | inactive: 0 | inactive: 0 | inactive: 0 | 0 | 3 | 0 | – | – | – | – | – | – | – | – | – | – | – |
| CC(C)(C)n1nc(-c2cccc3ccccc23)c2c(N)ncnc21 [1-Naphthyl PP1] | inactive: 0 | inactive: 0 | inactive: 0 | inactive: 0 | inactive: 0 | inactive: 0 | inactive: 0 | inactive: 0 | 0 | 0 | 0 | – | – | – | – | – | – | – | – | – | – | – |
| C/C=C1\C(=O)C[C@H]2[C@@H]3CCC4=CC(=O)CC[C@]4(C)[C@H]3CC[C@]12C [(Z)-Guggulsterone] | inactive: 0 | inactive: 0 | inactive: 0 | inactive: 0 | inactive: 0 | inactive: 0 | inactive: 0 | inactive: 0 | 0 | 0 | 0 | – | – | – | – | – | – | – | – | – | – | – |
| COc1cc(/C=C/C(=O)O)ccc1O [Ferulic acid (sodium)] | inactive: 0 | inactive: 0 | inactive: 0 | inactive: 0 | inactive: 0 | inactive: 0 | inactive: 0 | inactive: 0 | 0 | 0 | 0 | – | – | – | – | – | – | – | – | – | – | – |
| COC(=O)[C@H](CC(C)C)NC(=O)c1ccc(NC[C@@H](N)CS)cc1-c1cccc2ccccc12 | inactive: 0 | inactive: 0 | inactive: 0 | inactive: 0 | inactive: 0 | inactive: 0 | inactive: 0 | inactive: 0 | 0 | 0 | 0 | – | – | – | – | – | – | – | – | – | – | – |
| COc1ccnc(C[S+]([O-])c2nc3cc(-n4cccc4)ccc3[nH]2)c1C (stereo unspecified) [Ilaprazole (sodium)] | inactive: 0 | inactive: 0 | inactive: 0 | inactive: 0 | inactive: 0 | inactive: 0 | inactive: 0 | inactive: 0 | 0 | 0 | 0 | – | – | – | – | – | – | – | – | – | – | – |
| COc1cc2c(-c3cnn4cc(N5CCC(N6CCN(C)CC6)CC5)cnc34)ccnc2cc1F | inactive: 0 | inactive: 0 | inactive: 0 | inactive: 0 | inactive: 0 | inactive: 0 | inactive: 0 | inactive: 0 | 0 | 0 | 0 | – | – | – | – | – | – | – | – | – | – | – |
| Cc1ccc(NC(=O)c2ccc(CN3CCN(C)CC3)cc2)cc1Nc1nc(-c2cccnc2)cs1 [Masitinib (mesylate)] | – | – | – | – | – | – | – | – | – | – | – | inactive: 0 | inactive: 0 | inactive: 0 | inactive: 0 | inactive: 0 | inactive: 0 | inactive: 0 | inactive: 0 | 0 | 1 | 0 |
| Cn1ncc(Cl)c1-c1cc(C(=O)N[C@H](CN)Cc2cccc(F)c2)sc1Cl [Afuresertib (hydrochloride)] | inactive: 0 | inactive: 0 | inactive: 0 | inactive: 0 | inactive: 0 | inactive: 0 | inactive: 0 | inactive: 0 | 0 | 0 | 0 | – | – | – | – | – | – | – | – | – | – | – |
| CN(C)C(=O)c1cc2cnc(Nc3ccc(N4CCNCC4)cn3)nc2n1C1CCCC1 [Ribociclib] | inactive: 0 | inactive: 0 | inactive: 0 | inactive: 0 | inactive: 0 | inactive: 0 | inactive: 0 | inactive: 0 | 0 | 0 | 0 | – | – | – | – | – | – | – | – | – | – | – |
| CC(C)NC[C@@H](C(=O)N1CCN(c2ncnc3c2[C@H](C)C[C@H]3O)CC1)c1ccc(Cl)cc1 [Ipatasertib] | inactive: 0 | inactive: 0 | inactive: 0 | inactive: 0 | inactive: 0 | inactive: 0 | inactive: 0 | inactive: 0 | 0 | 0 | 0 | – | – | – | – | – | – | – | – | – | – | – |

A different layout for some results above.
Structure (SMILES) | kinase-Nluc reporter destabilization hit call ([1]; 10 µM) | kinase-Nluc reporter destabilization hit call ([2]; 10 µM) | kinase-Nluc reporter destabilization hit call ([3]; 10 µM) | kinase-Nluc reporter destabilization hit call ([4]; 10 µM) | kinase-Nluc reporter destabilization hit call ([5]; 10 µM) | kinase-Nluc reporter destabilization hit call ([6]; 10 µM) | kinase-Nluc reporter destabilization hit call ([7]; 10 µM) | kinase-Nluc reporter destabilization hit call ([8]; 10 µM) | number of time points ([9]; 10 µM) | number of time points ([10]; 10 µM) | number of time points ([11]; 10 µM) | kinase-Nluc reporter destabilization hit call ([1]; 2.5 µM) | kinase-Nluc reporter destabilization hit call ([2]; 2.5 µM) | kinase-Nluc reporter destabilization hit call ([3]; 2.5 µM) | kinase-Nluc reporter destabilization hit call ([4]; 2.5 µM) | kinase-Nluc reporter destabilization hit call ([5]; 2.5 µM) | kinase-Nluc reporter destabilization hit call ([6]; 2.5 µM) | kinase-Nluc reporter destabilization hit call ([7]; 2.5 µM) | kinase-Nluc reporter destabilization hit call ([8]; 2.5 µM) | number of time points ([9]; 2.5 µM) | number of time points ([10]; 2.5 µM) | number of time points ([11]; 2.5 µM)
CC(=O)c1c(C)c2cnc(Nc3ccc(N4CCNCC4)cn3)nc2n(C2CCCC2)c1=O [Palbociclib (isethionate)] | inactive: 0 | inactive: 0 | inactive: 0 | inactive: 0 | inactive: 0 | inactive: 0 | inactive: 0 | inactive: 0 | 0 | 0 | 0 | – | – | – | – | – | – | – | – | – | – | –
c1cc(-c2cnn3cc(-c4ccc(OCCN5CCCCC5)cc4)cnc23)ccn1 [Dorsomorphin (dihydrochloride)] | – | – | – | – | – | – | – | – | – | – | – | inactive: 0 | inactive: 0 | inactive: 0 | inactive: 0 | inactive: 0 | inactive: 0 | inactive: 0 | inactive: 0 | 0 | 1 | 0
